# Percent effect of library compounds

Protein sequences, listed by entry. Tags and fused reporters are not part of them. Residues count along the entry.
UniProt P9WFT3, whole entry: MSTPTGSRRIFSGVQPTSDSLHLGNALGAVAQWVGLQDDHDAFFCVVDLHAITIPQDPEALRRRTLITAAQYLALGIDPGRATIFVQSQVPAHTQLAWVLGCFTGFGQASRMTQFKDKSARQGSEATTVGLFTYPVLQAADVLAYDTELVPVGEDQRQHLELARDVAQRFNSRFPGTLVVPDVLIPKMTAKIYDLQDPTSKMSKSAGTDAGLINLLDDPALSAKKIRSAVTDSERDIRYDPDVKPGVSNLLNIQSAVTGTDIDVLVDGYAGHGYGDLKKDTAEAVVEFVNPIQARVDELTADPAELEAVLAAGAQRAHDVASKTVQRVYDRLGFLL
UniProt P9WPC5, whole entry: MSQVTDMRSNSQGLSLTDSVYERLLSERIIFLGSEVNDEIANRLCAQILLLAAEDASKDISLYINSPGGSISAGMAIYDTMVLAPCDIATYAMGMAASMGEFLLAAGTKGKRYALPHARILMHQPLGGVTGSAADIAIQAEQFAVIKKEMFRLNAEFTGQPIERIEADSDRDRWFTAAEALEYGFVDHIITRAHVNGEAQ
UniProt P9WPC3, whole entry partner: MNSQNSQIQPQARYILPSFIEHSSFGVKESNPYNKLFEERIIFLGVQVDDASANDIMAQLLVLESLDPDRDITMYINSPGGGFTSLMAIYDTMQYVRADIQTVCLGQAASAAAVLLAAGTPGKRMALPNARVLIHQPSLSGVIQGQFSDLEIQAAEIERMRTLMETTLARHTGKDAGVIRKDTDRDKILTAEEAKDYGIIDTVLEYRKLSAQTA
UniProt Q4DA54, 1-478: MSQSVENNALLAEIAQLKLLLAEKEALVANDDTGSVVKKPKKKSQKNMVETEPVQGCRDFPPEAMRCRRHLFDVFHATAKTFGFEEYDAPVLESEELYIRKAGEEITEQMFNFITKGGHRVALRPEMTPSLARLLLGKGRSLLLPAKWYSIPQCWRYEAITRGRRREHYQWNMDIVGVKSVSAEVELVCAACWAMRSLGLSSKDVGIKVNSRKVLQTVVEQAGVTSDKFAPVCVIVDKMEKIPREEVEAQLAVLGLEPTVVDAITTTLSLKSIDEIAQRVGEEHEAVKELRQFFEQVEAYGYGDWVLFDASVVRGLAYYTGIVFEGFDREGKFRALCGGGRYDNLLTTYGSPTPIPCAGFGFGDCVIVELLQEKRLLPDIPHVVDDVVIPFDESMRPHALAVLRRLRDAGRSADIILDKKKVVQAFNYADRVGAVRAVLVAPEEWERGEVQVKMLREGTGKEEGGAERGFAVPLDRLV

Each number is a percent effect as filed.
The controls that fix the scale are not given in the record; negative values are as filed.
Compounds were drawn at random from those tested, without regard to their results.
A dash means the value is not listed here; it may have been measured.

MtTrpRS: 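Enzyme assay of tryptophanyl-tRNA synthetase; the read-out is not stated. Target: Tryptophan-tRNA ligase, Mycobacterium tuberculosis (UniProt P9WFT3). Tested at 10 µM. Direction is not recorded; retested compounds ran higher, which suggests that high means inhibition. About 65,000 compounds were tested under these conditions; 0.098% (about 64) showed 50% or more at least once.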
ClpP1P2: 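ClpP1P2, Mycobacterium tuberculosis (UniProt P9WPC5 and UniProt P9WPC3). Protease assay of ClpP1P2, read by the AMC dye that it sets free. Tested at 50 µM. Direction is inferred from only a few compounds that gave an IC50; most scored high, so higher reads as stronger inhibition. Most other retested compounds had strongly negative values. Size under these conditions: about 69,000 compounds, about 10 of them at 50% or above in at least one test.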
TcHisRS: 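Enzyme assay of histidyl-tRNA synthetase; the read-out is not stated. Target: Histidine-tRNA ligase, Trypanosoma cruzi CL Brener (UniProt Q4DA54). Compounds at 30 µM. Higher reads as stronger inhibition (inferred: compounds with an IC50 in retests scored well above the rest). Of about 69,000 compounds tested this way, about 31 (0.045%) reached 50% or more in at least one test.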

Result for Cn1cccc1C(=O)N1CCC2(CC1)CN(c1cncnc1)C(=O)CO2 was MtTrpRS: 7.753%; ClpP1P2: 2.73%; TcHisRS: -60.66%.
Result for Cc1nn(CC(=O)N2CCN(c3ccccc3F)CC2)c(C)c1Cl was MtTrpRS: 5.22%; ClpP1P2: 4.669%; TcHisRS: 0%.
Result for Cc1cnn(CCNCc2nc(CNC(=O)c3ccccc3)no2)c1 was MtTrpRS: -1.004%; ClpP1P2: 17.3%; TcHisRS: 5.848%.
Result for O=c1[nH][nH]cc1-c1ccnc(NCCCN2CCOCC2)n1 was ClpP1P2: 22.59%; TcHisRS: 9.04%.
Result for CN(C1CCCC1)C(C)(C)C(=O)NCCNC(N)=O was MtTrpRS: -5.121%; ClpP1P2: -0.8402%; TcHisRS: 0.5618%.
Result for c1csc(N2[C@H](Cn3cncn3)C[C@@H]3CNCC[C@@H]32)n1 was MtTrpRS: 0.0969%; ClpP1P2: 12.69%; TcHisRS: 7.362%.
Result for CNc1cc(C)nc(C2CN(Cc3cncs3)CCO2)c1 (centres undefined) was ClpP1P2: 3.716%; TcHisRS: 2.996%.
Result for Cc1ccc(C(C)NC(=O)N2CCN(C(=O)CC(F)(F)F)CC2)o1 (centres undefined) was MtTrpRS: -2.468%; ClpP1P2: 0.8354%; TcHisRS: 4.433%.
Result for COC1COC2(CCN(CC3CC3)CC2)C1 (centres undefined) was ClpP1P2: 6.575%; TcHisRS: -0.5025%.
Result for CS(=O)(=O)N1CCN2C(=O)N(C3CCOCC3)C[C@H]2C1 was MtTrpRS: 6.789%; ClpP1P2: -9.316%; TcHisRS: -3.483%.
Result for CC(C)NC(=O)NC[C@H]1OC[C@@H](NCc2cccs2)[C@@H]1O was MtTrpRS: 3.81%; ClpP1P2: -6.984%; TcHisRS: 0.4975%.
Result for c1ccc(CN2CCc3ncnc(C4CC4)c3CC2)cc1 was MtTrpRS: 3.475%; ClpP1P2: 15.11%; TcHisRS: 17.09%.
Result for Cc1cc(C)n(C2CCCN(C(=O)Cc3cccc(F)c3)C2)n1 (centres undefined) was MtTrpRS: -4.126%; ClpP1P2: -11.41%; TcHisRS: 2.857%.
Result for O=C(NCCC(=O)N1CCCCCCC1)c1ccoc1 was MtTrpRS: -1.193%; ClpP1P2: -16.51%; TcHisRS: 3.704%.
Result for CCc1nc(N2CCC3(CC2)OCCCC3O)ncc1C (centres undefined) was MtTrpRS: -4.693%; ClpP1P2: -8.993%; TcHisRS: 4.255%.
Result for CC(=O)N1CCC2(CC1)C(=O)N(CC1CC1)c1ccccc12 was MtTrpRS: -0.229%; ClpP1P2: 3.464%; TcHisRS: 0.7519%.
Result for COCCN1CCN(CCS(=O)(=O)c2cccc(OC)c2)CC1 was MtTrpRS: 1.72%; ClpP1P2: -2.934%; TcHisRS: 6.122%.
Result for O=C(NCCc1ccn(-c2ccccc2)n1)N1CCC1 was MtTrpRS: -1.486%; ClpP1P2: 15.72%; TcHisRS: 1.132%.
Result for Cc1ccccc1CN(CCN(C)C)Cc1ncc[nH]1 was MtTrpRS: -4.197%; ClpP1P2: -22.97%; TcHisRS: -1.932%.
Result for Cc1ccc(Oc2ncccc2CNS(=O)(=O)N2CCOCC2)cn1 was MtTrpRS: -0.7407%; ClpP1P2: -10.29%; TcHisRS: 3.571%.
Result for Cc1cc(C(=O)N(C)Cc2ccoc2)c(NC(=O)C(C)(C)C)s1 was MtTrpRS: 0.6849%; ClpP1P2: -11.28%; TcHisRS: 6.329%.
Result for COc1ncccc1C(=O)NC1(c2cccc(F)c2)CCOCC1 was MtTrpRS: 1.861%; ClpP1P2: -6.184%; TcHisRS: 10.12%.
Result for CSCc1nc(CCNC(=O)C2CCCN(C(C)=O)C2)cs1 (centres undefined) was MtTrpRS: 1.636%; ClpP1P2: -3.995%; TcHisRS: 8.108%.
Result for CN1CCCC[C@@H]2[C@H]1[C@@H](c1ccccc1)CCN2C(=O)c1cccnc1 was ClpP1P2: -3.088%; TcHisRS: 17.02%.
Result for c1ccc(CO[C@@H]2C[C@H]3CN(c4ncccn4)CCN3C2)nc1 was MtTrpRS: -3.991%; ClpP1P2: 2.269%; TcHisRS: 10.13%.
Result for Cn1cc(C2CCCN2C(=O)CCCc2ccccn2)cn1 (centres undefined) was MtTrpRS: -5.49%; ClpP1P2: -18.11%; TcHisRS: 2.339%.
Result for COc1ccc(F)c(CNC2CCCc3nc(N(C)C)ncc32)c1 (centres undefined) was MtTrpRS: 1.566%; ClpP1P2: 1.793%; TcHisRS: -0.4975%.
Result for COCc1ccc(C(=O)N2CCN(CCS(C)(=O)=O)CC2)cc1 was MtTrpRS: 1.095%; ClpP1P2: -5.496%; TcHisRS: -2.041%.
Result for CCc1n[nH]c(C2CN(C(=O)c3nc(C)n4ccccc34)CCO2)n1 (centres undefined) was MtTrpRS: 3.155%; ClpP1P2: -105.4%; TcHisRS: 1.901%.
Result for O=C(NCC1CC1)[C@H]1C[C@H]2OCC[C@H]2N(Cc2ccoc2)C1 was MtTrpRS: 3.226%; ClpP1P2: 7.385%; TcHisRS: 0.5525%.
Result for COc1cc(-c2noc(C(CC(C)C)N3CCCCC3=O)n2)ccn1 (centres undefined) was MtTrpRS: -2.236%; ClpP1P2: 1.073%; TcHisRS: 5.747%.
Result for Cc1nn(C)cc1C(=O)N1CCCN(C2Cc3ccccc3C2)CC1 was MtTrpRS: 15.62%; ClpP1P2: 11.55%; TcHisRS: -5.195%.
Result for CC(=O)Cn1cc(C#N)c(=O)c2cc(Br)ccc21 was MtTrpRS: -2.2%; ClpP1P2: -7.653%; TcHisRS: 8.046%.
Result for O=C(Cn1cnc2cc3c(cc21)OCCCO3)NC1CCCC1 was MtTrpRS: -3.594%; ClpP1P2: -1.526%; TcHisRS: 4.215%.

3 of the entries, repeated:

Compound,MtTrpRS,ClpP1P2,TcHisRS
CN1CCCC[C@@H]2[C@H]1[C@@H](c1ccccc1)CCN2C(=O)c1cccnc1,-,-3.088%,17.02%
Cc1ccc(C(C)NC(=O)N2CCN(C(=O)CC(F)(F)F)CC2)o1 (centres undefined),-2.468%,0.8354%,4.433%
O=C(NCC1CC1)[C@H]1C[C@H]2OCC[C@H]2N(Cc2ccoc2)C1,3.226%,7.385%,0.5525%

Source: ChEMBL document CHEMBL3988442, “University of Dundee, Small-Polar-MMV Screening Library” (2021).